# Data reported in PubChem BioAssay AID1671190 (National Center for Advancing Translational Sciences (NCATS), 2021).
# Protein sequences, listed by entry. Tags and fused reporters are not part of them. Lines headed by an entry give the natural chain unless they say otherwise; changes in a name come on top.
# UniProt P18054: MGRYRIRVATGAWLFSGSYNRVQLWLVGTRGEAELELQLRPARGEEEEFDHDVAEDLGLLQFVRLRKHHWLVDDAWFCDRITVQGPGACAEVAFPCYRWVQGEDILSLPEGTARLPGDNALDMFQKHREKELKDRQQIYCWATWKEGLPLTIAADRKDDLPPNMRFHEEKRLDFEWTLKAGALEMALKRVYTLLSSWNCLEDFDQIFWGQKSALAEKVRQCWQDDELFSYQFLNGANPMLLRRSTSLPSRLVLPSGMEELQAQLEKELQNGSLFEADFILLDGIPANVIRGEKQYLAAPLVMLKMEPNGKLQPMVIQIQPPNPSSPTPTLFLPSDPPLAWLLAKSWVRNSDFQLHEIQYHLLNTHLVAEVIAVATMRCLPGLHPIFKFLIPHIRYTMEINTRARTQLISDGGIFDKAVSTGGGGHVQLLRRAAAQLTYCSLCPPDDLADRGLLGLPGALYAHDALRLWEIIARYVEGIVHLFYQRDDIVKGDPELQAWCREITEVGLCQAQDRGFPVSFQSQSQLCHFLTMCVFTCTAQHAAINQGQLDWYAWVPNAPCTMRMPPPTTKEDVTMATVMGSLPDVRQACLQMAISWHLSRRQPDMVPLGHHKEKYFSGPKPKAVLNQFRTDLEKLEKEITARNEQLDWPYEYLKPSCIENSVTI
# In all, about 580,000 compounds went through this assay and about 6,100 (1.1%) were called active. Inconclusive results, whose numbers are uncertain, are shown with a selection of clear calls. The call rests on the fitted dose curve; in most records, active means well fitted inhibition curve with a large enough effect; inconclusive means small, poorly fitted or top-dose-only effect, or another doubt; inactive means no such curve, though single readings can be large or run the other way. Potencies of inconclusive entries are doubtful fits and often do not repeat.
# Target: Polyunsaturated fatty acid lipoxygenase ALOX12 (Homo sapiens) (UniProt P18054)
# Assay: Primary qHTS assay for inhibitors of human arachidonate 12S-lipoxygenase (ALOX12): Round 2
# Details: purified 12hLO, xylenol orange hydroperoxide absorbance; activity change, negative = inhibition: at 108 µM (top of the series) unless noted
# Outline: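 Hydroperoxide product was detected by ferrous iron/xylenol orange as the 573 to 405 nm absorbance ratio. Arachidonic acid at 40 uM (final) was turned over for 30 min at room temperature by 150 nM human 12hLO, pH 7.0 Hepes buffer, after 15 min compound preincubation.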
# On the % scale 0 is the no-effect control and ±100 the full control effect; potency means the concentration at half of the fitted maximal effect.
SMILES,"activity change, negative = inhibition",Potency
O=C(Nc1ccc2oc(-c3ccncc3)nc2c1)c1c(F)c(F)c(F)c(F)c1F,inactive: -19.9%,–
CSc1ccc(/C=C/c2ccc3cccc(O)c3n2)cc1,–,"inconclusive: 39.8 µM [inhibitor, partial curve, poor fit]"
COc1ccc2c(c1)NC(c1cc(Cl)cc(Cl)c1O)c1cccn1-2 (configuration not stated),–,active: 31.6 µM
Cc1ccc(-n2nc3ccc(NC(=O)C(C)C)cc3n2)cc1,inactive: -14.2%,–
Cn1cccc1C(C(=O)NC1CCCCC1)N(C(=O)Cc1cccs1)C1CC1 (configuration not stated),inactive: -0.738% [at 57.4 µM],–
COc1ccc(Cn2cnc3cnc(Nc4ccc(NC(C)=O)cc4)cc32)cc1OC,inactive: 3.14%,–
COc1ccc(CN2CCNC(=O)C2CC(=O)NC2CCOCC2)c(F)c1 (configuration not stated),–,"inconclusive: 39.8 µM [inhibitor, partial curve, poor fit]"
CCOC(=O)C1=CCN(S(=O)(=O)c2ccc(C)cc2)C1c1ccc(CC)cc1 (configuration not stated),inactive: 0.0887%,–
Cc1ccc(NCc2ccccc2-c2nnc(-c3ccccc3Cl)o2)cc1Cl,–,"inconclusive: 126 µM [inhibitor, partial curve, poor fit]"
CCCN1C(=O)/C(=C/c2ccc(N3CCOCC3)cc2)NC1=S,–,"inconclusive: 39.8 µM [inhibitor, partial curve, poor fit]"
COc1cccc(C(N)=O)c1OC(=O)Cc1ccccc1F,inactive: 10.8%,–
Cc1cc(NC(=O)CCN2CC(C)OC(C)C2)ccc1Br (configuration not stated),–,"inconclusive: 35.5 µM [inhibitor, partial curve, poor fit]"
Cc1nn(CCCC(=O)Nc2sc3c(c2C#N)CCC3)c(C)c1[N+](=O)[O-],–,"inconclusive: 35.5 µM [inhibitor, partial curve, poor fit]"
COc1cccc(OCC(=O)Nc2cc(NC(=O)COc3cccc(OC)c3)cc(C(=O)O)c2)c1,–,"inconclusive: 39.8 µM [inhibitor, partial curve, poor fit]"
Cc1cccc(OCCn2c(-c3ccco3)nc3ccccc32)c1,–,"inconclusive: 7.08 µM [inhibitor, partial curve, poor fit]"
C/C(=N\NC(=S)NC(C)C)c1ccccc1,–,"inconclusive: 50.1 µM [inhibitor, partial curve, poor fit]"
Cc1ccc2nc(Nc3ccccc3)cc(C)c2c1,–,"inconclusive: 56.2 µM [inhibitor, partial curve, poor fit]"
CCN(CC)Cc1nc2c(c(=O)[nH]1)C1(CCCCC1)Cc1ccccc1-2,inactive: 11.6%,–
Cc1nc2c(OCC(=O)OC(C)(C)C)cccn2c(=O)c1-c1cc(C)n(-c2ccc(Cl)cc2)n1,–,"inconclusive: 20 µM [inhibitor, full curve]"
NC(=O)c1ncn([C@@H]2O[C@H](C(=O)N3CCN(CC(=O)Nc4ccccn4)CC3)[C@@H](O)[C@H]2O)n1,inactive: 15.3%,–
COc1ccc(CNC(=O)[C@@H]2CCC[C@@H](NCc3c(C)noc3C)CN(C)C(=O)C2)cc1,inactive: 67.2%,–
Clc1ccc(C2Nc3cccc4cccc(c34)N2)c(Cl)c1,–,"inconclusive: 31.6 µM [inhibitor, partial curve, poor fit]"
CCN(CC)C(=O)CSc1nc2c(sc(=S)n2-c2ccccc2)c(=O)n1-c1ccc(OC)cc1OC,inactive: 10.8%,–

SMILES,"activity change, negative = inhibition",Potency
COc1ccc(OC)c(NC(=O)c2c(NCc3ccc(C)o3)sc3c2CCCCC3)c1,–,"inconclusive: 50.1 µM [inhibitor, partial curve, poor fit]"
O=[N+]([O-])c1cccc(N=Cc2ccccc2)c1,inactive: -4.29%,–
Cc1cc(Nc2ccccc2Cl)n2nc(-c3ccco3)nc2n1,inactive: 10.6%,–
O=C(CSc1ccc2nnc(-c3ccncc3)n2n1)NCc1ccco1,–,"inconclusive: 56.2 µM [inhibitor, partial curve, poor fit]"
Cc1cccc(Nc2nnc(SCC(=O)c3c(N)n(C4CC4)c(=O)[nH]c3=O)s2)c1,inactive: 496%,–
CCOC(=O)N1CCN(C(=O)COc2ccc3oc4c(c3c2)CCCC4)CC1,–,"inconclusive: 89.1 µM [inhibitor, single point]"
Cc1ccc(CN2CC3ON=C(C(=O)O)C3C2)cc1 (configuration not stated),–,"inconclusive: 14.1 µM [inhibitor, full curve, poor fit]"
Cc1ccc(C)c(N2CCN(C(=O)c3ccc(CS(=O)(=O)c4ccccc4C)o3)CC2)c1,–,"inconclusive: 89.1 µM [inhibitor, partial curve, poor fit]"
CCOC(=O)N1CCN(C(=O)CNC(=O)c2cc3cc(OC)c(OC)cc3n2C)CC1,inactive: 2.25%,–
COc1cc(OC)c(NC(=O)Cn2ccn3nc(-c4ccccc4)c(CO)c3c2=O)cc1Cl,–,"inconclusive: 56.2 µM [inhibitor, single point]"
O=C(c1ccc(C(F)(F)F)cc1)N1CCC2(C1)C(=O)Nc1ccccc12 (configuration not stated),–,"inconclusive: 3.55 µM [inhibitor, full curve, poor fit]"
OC(c1ccc(F)c(F)c1)c1nc(-c2ccccc2)cs1 (configuration not stated),inactive: -14.5%,–
COc1ccccc1/C=C\C(=O)NCC(=O)N/N=C/c1cccc(OC)c1O,inactive: -18.4%,–
Cc1ccccc1CC(=O)Nc1ccc(N2CCOCC2)c(Cl)c1,–,"inconclusive: 178 µM [inhibitor, partial curve, poor fit]"
CC1=C(c2ccc(C(C)C)cc2)S(=O)(=O)N=C1N1CCC(C(=O)NCc2ccco2)CC1,inactive: -20.4%,–
COC(=O)c1c(SCC(=O)Nc2ccc(Cl)cc2F)nc(=O)[nH]c1C,–,"inconclusive: 56.2 µM [inhibitor, partial curve, poor fit]"
Cc1noc(NS(=O)(=O)c2ccc(NC(=O)CCN3C(=O)c4ccccc4C3=O)cc2)c1C,–,"inconclusive: 50.1 µM [inhibitor, partial curve, poor fit]"
CNc1c(NS(=O)(=O)c2ccc(C)c(C)c2)c(=O)oc2ccccc12,–,"inconclusive: 35.5 µM [inhibitor, partial curve, poor fit]"
Cc1ccc(-n2c(CNc3ccc(F)cc3)nnc2SCC(N)=O)cc1,–,"inconclusive: 44.7 µM [inhibitor, single point]"
COC(=O)Oc1ccc2c(=O)c(Oc3ccc(-c4ccccc4)cc3)coc2c1,–,"inconclusive: 63.1 µM [inhibitor, partial curve, poor fit]"
Cc1ccc(NC(=O)c2nc3ccccc3nc2N2CCN(C)CC2)cc1C,inactive: 5.95%,–
CC1=C[C@@H](CNC(=O)c2cnccn2)[C@H](C(C)C)C[C@H]1CC(=O)N1CCOCC1,inactive: -16.6% [at 176 µM],–
CCCCCCCCN1C(=O)[C@H](CC(=O)NCc2cccs2)C[C@@]2(C(=O)OC)CC(C)(C)CC=C12,inactive: 4.75%,–

# A different layout for part of the listing above.
SMILES	activity change, negative = inhibition	Potency
COc1ccc(OC)c(NC(=O)c2c(NCc3ccc(C)o3)sc3c2CCCCC3)c1	–	inconclusive: 50.1 µM [inhibitor, partial curve, poor fit]
Cc1cc(Nc2ccccc2Cl)n2nc(-c3ccco3)nc2n1	inactive: 10.6%	–
Cc1ccc(C)c(N2CCN(C(=O)c3ccc(CS(=O)(=O)c4ccccc4C)o3)CC2)c1	–	inconclusive: 89.1 µM [inhibitor, partial curve, poor fit]
O=C(c1ccc(C(F)(F)F)cc1)N1CCC2(C1)C(=O)Nc1ccccc12 (configuration not stated)	–	inconclusive: 3.55 µM [inhibitor, full curve, poor fit]
CCCCCCCCN1C(=O)[C@H](CC(=O)NCc2cccs2)C[C@@]2(C(=O)OC)CC(C)(C)CC=C12	inactive: 4.75%	–

# Next entries follow.

SMILES,"activity change, negative = inhibition",Potency
NS(=O)(=O)c1ccc(CCNC(=O)C2CCCN(S(=O)(=O)c3cccnc3)C2)cc1 (configuration not stated),inactive: 187%,–
O=C1N/C(=N/S(=O)(=O)c2ccccc2)S/C1=C/c1cccnc1,–,"inconclusive: 1.58 µM [inhibitor, full curve, poor fit]"
Cc1cc(Br)cn2c(Cc3cccc(Cl)c3)c(-c3ccco3)nc12,–,"inconclusive: 39.8 µM [inhibitor, partial curve, poor fit]"
CC(C)NC(=O)C1CC(=O)N(c2ccc(Br)cc2)C1 (configuration not stated),inactive: 7.92%,–
O=C(CCS(=O)(=O)c1cccc2nsnc12)NC1CCCCCC1,–,"inconclusive: 112 µM [inhibitor, single point]"
COc1cc(C2CC(=O)Oc3c(C(CCN4CCCC(C)C4)c4ccc(N(C)C)cc4)c(OC)cc(OC)c32)cc(OC)c1OC (configuration not stated),–,"inconclusive: 100 µM [inhibitor, partial curve, poor fit]"
CCOc1ccc(C(=O)NCCC2=CCCCC2)cc1OCC,–,"inconclusive: 79.4 µM [inhibitor, partial curve, poor fit]"
CC(C)C[C@H]1CNC(=S)N1CC1CCCN1C[C@H](Cc1ccccc1)N1C[C@H](Cc2ccccc2)N(CC2CCCCC2)C1=S (some centres not stated),–,"inconclusive: 44.7 µM [inhibitor, partial curve, poor fit]"
COc1ccc(/C=C2\Oc3cc(OS(C)(=O)=O)ccc3C2=O)c(OC)c1,inactive: -17.9%,–
Cc1ccc(CNC(=O)Cn2c(=O)cc(-c3ccccc3)c3c(C)nn(C)c32)cc1,–,"inconclusive: 31.6 µM [inhibitor, full curve, poor fit]"
C=C(c1ccc(C(=O)O)cc1)c1cc2c(cc1C)C(C)(C)CCC2(C)C,–,"inconclusive: 3.85 µM [inhibitor, partial curve, poor fit]"
CCc1ccc(NC(=O)CC2C(=O)N(c3ccc(OC)cc3)C(=O)N2Cc2ccc(OC)cc2)cc1 (configuration not stated),–,"inconclusive: 56.2 µM [inhibitor, partial curve, poor fit]"
CN1CC(=O)N(C2CCCNC2)Cc2c(NCC3CCCCC3)ncnc21 (configuration not stated),–,"inconclusive: 7.94 µM [inhibitor, full curve, poor fit]"
Cc1cc(Nc2ccccc2)n(-c2nc3ccccc3[nH]2)n1,inactive: -4.2%,–
Cc1c(Nc2nc3ccc(Cl)cc3n3cnnc23)cccc1[N+](=O)[O-],inactive: -45.2%,–
O=C1CCC([N+](=O)[O-])C(c2ccc(-c3ccccc3)cc2)N1 (configuration not stated),–,"inconclusive: 79.4 µM [inhibitor, partial curve, poor fit]"
COc1ccc(-c2nc3n(c2Br)CCC3)cc1,–,"inconclusive: 44.7 µM [inhibitor, single point]"
COc1cc(NC(=O)COC(=O)/C=C/c2c(C)nn(-c3ccc(F)cc3)c2Cl)cc(OC)c1,inactive: -4.72%,–
Cc1cccc2sc(NNC(=O)C3COc4ccccc4O3)nc12 (configuration not stated),–,"inconclusive: 50.1 µM [inhibitor, partial curve, poor fit]"
CCn1c(SCC(=O)Nc2sc3c(c2C#N)CCCC3)nnc1-c1ccco1,inactive: -0.0005%,–
COc1cc(C(=O)OCC(=O)Nc2ccc(N3CCOCC3)cc2)ccc1OCC(C)C,–,"inconclusive: 112 µM [inhibitor, partial curve, poor fit]"
